# Measurements published in PubChem BioAssay AID1259415 (National Center for Advancing Translational Sciences (NCATS), 2018).
# Among all 410,000 compounds or so, about 18,000 (4.4%) were called active. Inconclusive means that the source gave no clear call. Such entries were picked first, then a sample of the others. Cut-off read from the data, not from the text of the source: active = activity change below about -60%; inconclusive = no clear call, values can overlap the other calls; inactive = above about -39%.
# Test: qHTS Assay for inhibitors of the human cytomegalovirus (HCMV)
# Conditions: HFF cells, HCMV-luciferase reporter, 72 h; at 57.5 µM; hits give low values
# Procedure, shortened: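 Steps: HFFs plated, 16 h 37C; compounds added; HCMV-luciferase added to MOI 1 PFU/cell; 72 h 37C; OneGlo reagent, 5 min room temperature; luminescence read, normalized to controls.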
# % is set by controls: 0 for no effect and ±100 for the full control effect.
row,SMILES,"activity change, negative = inhibition"
1,C=CCNC(=S)NNC(=O)c1csc(C)c1C,inconclusive: -46.2%
2,CC(C)[C@H](NC(=O)c1ccco1)C(=O)OCC(=O)N1CC(=O)Nc2ccccc21,inconclusive: -41.1%
3,O=C(NC1CCN(Cc2ccccc2)CC1)c1cncc(Br)c1,inconclusive: -56.5%
4,Cc1cccc(NC(=O)CCc2c(C)nc3c(c(C)nn3C(C)(C)C)c2C)c1C,inconclusive: -51.2%
5,CCCCS(=O)(=O)c1nc(-c2ccc(Br)cc2)cc(-c2ccccc2)c1C#N,inconclusive: -57.2%
6,CC(C)(C)OC(=O)CNC(=O)c1nc[nH]c1C(=O)N1CCc2ccccc2C1,inconclusive: -49.9%
7,COc1ccc(CNCCC(c2ccc(OC(C)C)cc2)c2ccccc2OC)cc1OC (configuration not stated),active: -98.5%
8,Fc1ccc(-c2cn3cc(Cc4ccccc4)sc3n2)cc1,active: -66.2%
9,CC(C)(C)c1ccc(OC(=O)c2ccc(-n3cncn3)nc2)cc1,inconclusive: -45.4%
10,Cc1cc(C)cc(-n2c(SCC(=O)NCc3ccc4c(c3)OCO4)nc3ccccc3c2=O)c1,inconclusive: -58.8%
11,COc1ccc(NC(=O)C#Cc2ccccc2)cc1OC,active: -88.1%
12,CCOC(=O)c1sc2nc[nH]c(=O)c2c1C,inactive: -13.4%
13,O=C(NCc1cccs1)c1ccc(Cn2c(SCc3ccc(F)cc3)nc3cccnc32)cc1,active: -63%
14,CC(C)Cc1nnc(NC(=O)CCC(=O)N2CCN(c3ccc([N+](=O)[O-])cc3)CC2)s1,inconclusive: -48.5%
15,CC1CCc2cc(F)ccc2N1C(=O)CSc1nnc2c(n1)[nH]c1ccccc12 (configuration not stated),active: -75.6%
16,C=CCOc1ccc(CN(C)C(=O)c2ccc(CNS(=O)(=O)c3ccc(C)c(C)c3)cc2)cc1,inconclusive: -44.7%
17,CC(C)NC(=O)CSc1nc2ccccc2n1CC(=O)N(C(C)C)C(C)C,inconclusive: -41.2%
18,CCC(=O)N1c2ccc(S(=O)(=O)CCC(=O)Nc3ccc(Br)c(C)c3)cc2CC1C (configuration not stated),active: -71.6%
19,O=C(c1ccc(OC2CCN(Cc3ccccn3)CC2)cc1)N1CCCCCC1,inconclusive: -42.2%
20,COc1ccc(CCN2C(=O)c3[nH]nc(-c4ccccc4O)c3C2c2ccccc2)cc1OC (configuration not stated),inconclusive: -53.6%
21,CCCCN(C)CCCNC(=O)Cn1ncc2c3ccccc3n(Cc3cc(C)ccc3C)c2c1=O,active: -99.3%
22,CCN(Cc1ccccc1)C(=O)c1sc2nc3n(c(=O)c2c1C)CCCC3,inconclusive: -57.5%

# Reprinted from the listing, 21 compounds:
row,SMILES,"activity change, negative = inhibition"
2,CC(C)[C@H](NC(=O)c1ccco1)C(=O)OCC(=O)N1CC(=O)Nc2ccccc21,inconclusive: -41.1%
3,O=C(NC1CCN(Cc2ccccc2)CC1)c1cncc(Br)c1,inconclusive: -56.5%
4,Cc1cccc(NC(=O)CCc2c(C)nc3c(c(C)nn3C(C)(C)C)c2C)c1C,inconclusive: -51.2%
5,CCCCS(=O)(=O)c1nc(-c2ccc(Br)cc2)cc(-c2ccccc2)c1C#N,inconclusive: -57.2%
6,CC(C)(C)OC(=O)CNC(=O)c1nc[nH]c1C(=O)N1CCc2ccccc2C1,inconclusive: -49.9%
7,COc1ccc(CNCCC(c2ccc(OC(C)C)cc2)c2ccccc2OC)cc1OC (configuration not stated),active: -98.5%
8,Fc1ccc(-c2cn3cc(Cc4ccccc4)sc3n2)cc1,active: -66.2%
9,CC(C)(C)c1ccc(OC(=O)c2ccc(-n3cncn3)nc2)cc1,inconclusive: -45.4%
10,Cc1cc(C)cc(-n2c(SCC(=O)NCc3ccc4c(c3)OCO4)nc3ccccc3c2=O)c1,inconclusive: -58.8%
11,COc1ccc(NC(=O)C#Cc2ccccc2)cc1OC,active: -88.1%
12,CCOC(=O)c1sc2nc[nH]c(=O)c2c1C,inactive: -13.4%
13,O=C(NCc1cccs1)c1ccc(Cn2c(SCc3ccc(F)cc3)nc3cccnc32)cc1,active: -63%
14,CC(C)Cc1nnc(NC(=O)CCC(=O)N2CCN(c3ccc([N+](=O)[O-])cc3)CC2)s1,inconclusive: -48.5%
15,CC1CCc2cc(F)ccc2N1C(=O)CSc1nnc2c(n1)[nH]c1ccccc12 (configuration not stated),active: -75.6%
16,C=CCOc1ccc(CN(C)C(=O)c2ccc(CNS(=O)(=O)c3ccc(C)c(C)c3)cc2)cc1,inconclusive: -44.7%
17,CC(C)NC(=O)CSc1nc2ccccc2n1CC(=O)N(C(C)C)C(C)C,inconclusive: -41.2%
18,CCC(=O)N1c2ccc(S(=O)(=O)CCC(=O)Nc3ccc(Br)c(C)c3)cc2CC1C (configuration not stated),active: -71.6%
19,O=C(c1ccc(OC2CCN(Cc3ccccn3)CC2)cc1)N1CCCCCC1,inconclusive: -42.2%
20,COc1ccc(CCN2C(=O)c3[nH]nc(-c4ccccc4O)c3C2c2ccccc2)cc1OC (configuration not stated),inconclusive: -53.6%
21,CCCCN(C)CCCNC(=O)Cn1ncc2c3ccccc3n(Cc3cc(C)ccc3C)c2c1=O,active: -99.3%
22,CCN(Cc1ccccc1)C(=O)c1sc2nc3n(c(=O)c2c1C)CCCC3,inconclusive: -57.5%

# More results follow:

row,SMILES,"activity change, negative = inhibition"
1,CCOC(=O)N1CCN(C(=O)c2oc3ccc(S(=O)(=O)N4CC(C)CC(C)C4)cc3c2C)CC1 (configuration not stated),inconclusive: -52.8%
2,Cc1ccc(C(=O)N2CC(=O)Nc3ccc(F)cc3C2c2ccc(F)cc2)cc1 (configuration not stated),inconclusive: -40.3%
3,CCOCCc1nnc(NC(=O)Cc2c(F)cccc2Cl)s1,inconclusive: -51.4%
4,O=C(NCc1ccccc1)/C(=C/c1ccc(OC(F)F)cc1)c1ccccc1,inconclusive: -48.7%
5,COc1ccccc1NC(=O)COn1nnc2ccc(S(=O)(=O)N3CCOCC3)cc21,active: -62.8%
6,CCN(CC)S(=O)(=O)c1ccc2oc(SCC(=O)Nc3cc(C)on3)nc2c1,inconclusive: -51.8%
7,COc1ccc(NC(=O)c2cc3ccccc3o2)cc1,inactive: 92.4%
8,OC1(C(F)(F)F)CC(O)(C(F)(F)F)n2nc(-c3ccccc3)cc2N1 (configuration not stated),inconclusive: -46.9%
9,Fc1ccc(CCNC(=S)Nc2ccc(F)c(Cl)c2)cc1,active: -65.7%
10,Cc1ccc([C@H]2C(C(=O)O)=CC[C@@H](c3ccc(C)cc3)N2S(=O)(=O)c2ccc(C)cc2)cc1,inactive: -5.91%
11,COc1cccc(CNC(=O)N2CCN(S(=O)(=O)c3ccc(Cl)cc3)CC2)c1,active: -60.7%
12,COc1ccc(NC(=S)Nc2nc(CC(=O)Nc3ccccc3OC)cs2)cc1,inconclusive: -51.5%
13,CC1(NC(=O)NCc2ccco2)CCS(=O)(=O)C1 (configuration not stated),inconclusive: -43.9%
14,C=CSc1sc(Cl)c(N2CCOCC2)c1[N+](=O)[O-],inconclusive: -59.3%
15,CC(=O)Nc1ccc(C(=O)OCC(=O)N2CCN(C(=O)c3ccco3)CC2)cc1,inactive: 2%
16,CCN(CC)S(=O)(=O)c1ccc2oc(C(=O)NCc3ccccc3OC)c(C)c2c1,inconclusive: -58.4%
17,CC(C)NC(=O)c1cc(C2CCCCN2C(=O)c2cc(C(C)(C)C)nn2C)on1 (configuration not stated),inactive: -10.6%
18,CC1CCN(c2c(NCc3ccc(C(=O)N4CCN(C5CCCCC5)CC4)cc3)c(=O)c2=O)CC1,inconclusive: -44%
19,O=C(NC(=S)Nc1ccccn1)c1cccc([N+](=O)[O-])c1,inconclusive: -53.6%
20,CC1CCCN(CCCNC(=O)c2ccc3c(c2)N(Cc2cccc(Cl)c2)C(=O)c2ccccc2S3=O)C1 (configuration not stated),active: -81.3%
21,CCC(=O)Nc1ccc(S(=O)(=O)Nc2ncccn2)cc1,inactive: 13.9%
22,Cc1cc(C=O)c(O)cc1O,inconclusive: -49.4%

row,SMILES,"activity change, negative = inhibition"
1,COc1cc(-c2nnc(-c3ccccc3)o2)cc(OC)c1OC,inactive: 26.5%
2,CC1(C)Cc2ccccc2-c2nnc(-c3ccc(O)cc3)n21,inconclusive: -50.7%
3,O=[N+]([O-])c1ccc(N2CCN(C(=S)NC3CCCCC3)CC2)cc1,inconclusive: -49.3%
4,Cc1ccc(N(C(=O)Cn2nnc(-c3ccc(C)o3)n2)C(C(=O)NC2CCCC2)c2ccco2)cc1 (configuration not stated),inconclusive: -48.6%
5,Cc1nc(N2CCOCC2)c2c(C)c(C(=O)Nc3ccc(C(F)(F)F)cc3)sc2n1,active: -84.9%
6,O=C(N/N=C/c1ccc([N+](=O)[O-])s1)c1cccc(Br)c1,active: -69.1%
7,c1ccc(Cc2nnc3sc(-c4cccnc4)nn23)cc1,active: -62.6%
8,Cc1ccc(Cn2ccc(NC(=O)c3nn(C)cc3[N+](=O)[O-])n2)cc1,active: -77.4%
9,Cc1ccc(N=C2NC(=O)/C(=C/c3cccn3C)S2)cc1C,inconclusive: -59.9%
10,CCCc1c(C(=O)N/N=C/c2sccc2C)nnn1-c1nonc1N,inconclusive: -50.2%
11,CCc1ccc(S(=O)(=O)c2c(C(=O)c3ccccc3)cnc3ccc(CC)cc23)cc1,active: -77.2%
12,COc1ccccc1NC(=O)C(=O)NCCC1CCCCN1S(=O)(=O)c1cccs1 (configuration not stated),inactive: 2.99%
13,CCCCCCn1cc(CN2CC(N3CCN(CCN(C)C)CC3)CS2(=O)=O)nn1 (configuration not stated),inconclusive: -40.4%
14,CCCn1c(C(O)c2ccc(C)cc2)nc2ccccc21 (configuration not stated),inconclusive: -53.2%
15,O=C(CCl)N(c1ccccc1)C1CCCCC1,active: -113%
16,COc1ccc(N(CC(=O)N2CCc3ccccc3C2)S(C)(=O)=O)cc1,inactive: 11.2%
17,O=Cc1cn(Cc2cccc([N+](=O)[O-])c2)c2ccccc12,inconclusive: -44.6%
18,O=c1[nH]c(=S)[nH]c(O)c1N=Nc1ccc2c(c1)OCO2,inconclusive: -40.9%
19,COc1cccc(CC2(CO)CCCN(Cc3cn(C)c4ccccc34)C2)c1 (configuration not stated),inconclusive: -48.3%
20,COc1ccc(C(=O)N2c3ccc(C)cc3C(C)(c3ccccc3)CC2(C)C)cc1 (configuration not stated),active: -71.2%
21,Cc1ccc2nc(N3CCN(C)CC3)c(C=O)c(=O)n2c1,inconclusive: -50%
22,CCOC(=O)N1CCN(C(=O)COc2cccc3c2CCN(Cc2ccccc2F)C3=O)CC1,inconclusive: -55.3%

row,SMILES,"activity change, negative = inhibition"
1,O=C(NC1CCN(Cc2ccccc2)CC1)C1CCN(S(=O)(=O)c2ccc(Cl)cc2)CC1,inconclusive: -59.7%
2,O=C(CCCN1C(=O)/C(=C\c2cccs2)SC1=S)Nc1ccccn1,active: -96.8%
3,COc1ccc(N2C3=C(CC4=C2CCCC4=O)C(=O)CCC3)cc1,inconclusive: -45.8%
4,COc1ccc2c(c1OC)C(=O)OC2Nc1ccccn1 (configuration not stated),inactive: -1.53%
5,COc1ccccc1N1CCN(S(=O)(=O)CCNC(=O)C23CC4CC(CC(C4)C2)C3)CC1,inactive: -12.7%
6,CN(C)/C=C(\C#N)C(=O)Nc1ccc(F)c(Cl)c1,inactive: 79.9%
7,Cc1nn(CC2CC2)c(=O)n1-c1ccc(Oc2ccccc2)cc1,inconclusive: -51.1%
8,Oc1ccc(CN2CCC(Cc3ccccc3)CC2)c2cccnc12,active: -101%
9,COc1ccc(N2CCN(c3ccnc4cc(Cl)ccc34)CC2)cc1,inconclusive: -56.4%
10,CN(C)c1cc[n+](Cc2ccccc2)cc1,active: -86.3%
11,C[C@]12CCCC3=CC(=O)C=C[C@@]31OC(=O)CC2,inconclusive: -58.2%
12,O=C(CN1CCN(c2ccc(Cl)cc2)CC1)c1ccccc1,active: -68.8%
13,COc1ccc(N/C=C/C(=O)c2cc(OC)c(OC)c(OC)c2)cc1,active: -80.1%
14,O=C(c1ccc(F)c(S(=O)(=O)N2CCOCC2)c1)N(CCc1ccccc1)Cc1ccccc1,inconclusive: -40.5%
15,Cc1cc(NC(=O)CSc2nc(CCC3CCCC3)nc3ccccc23)no1,inconclusive: -51.9%
16,Cc1ccc2oc3c(c(=O)c2c1)C(c1ccc(OCC(N)=O)cc1)N(Cc1ccc2c(c1)OCO2)C3=O (configuration not stated),inactive: -2.23%
17,O=C(Cn1c(NCCO)nc2ccccc21)Nc1cccc(S(=O)(=O)N2CCCC2)c1,inconclusive: -41.4%
18,O=C(CSc1nnc(-c2ccc(Br)cc2)n1-c1ccccc1)c1ccccc1,inconclusive: -51.1%
19,Cc1cccc(NS(=O)(=O)c2cccc(C(=O)NCC(c3ccc(F)cc3)N3CCOCC3)c2)c1 (configuration not stated),inactive: -19.6%
20,COc1cc(CNC(C)(C)C)cc(Br)c1OCc1cccs1,inconclusive: -53.2%
21,COc1ccc(N2CC(C(=O)NCCc3ccc(Cl)cc3)CC2=O)cc1 (configuration not stated),inconclusive: -48.1%
